Here are results for three molecules from article PMC7157520.

Amino acid sequences for entries named in this document (tags omitted).
UniProt Q6VN20: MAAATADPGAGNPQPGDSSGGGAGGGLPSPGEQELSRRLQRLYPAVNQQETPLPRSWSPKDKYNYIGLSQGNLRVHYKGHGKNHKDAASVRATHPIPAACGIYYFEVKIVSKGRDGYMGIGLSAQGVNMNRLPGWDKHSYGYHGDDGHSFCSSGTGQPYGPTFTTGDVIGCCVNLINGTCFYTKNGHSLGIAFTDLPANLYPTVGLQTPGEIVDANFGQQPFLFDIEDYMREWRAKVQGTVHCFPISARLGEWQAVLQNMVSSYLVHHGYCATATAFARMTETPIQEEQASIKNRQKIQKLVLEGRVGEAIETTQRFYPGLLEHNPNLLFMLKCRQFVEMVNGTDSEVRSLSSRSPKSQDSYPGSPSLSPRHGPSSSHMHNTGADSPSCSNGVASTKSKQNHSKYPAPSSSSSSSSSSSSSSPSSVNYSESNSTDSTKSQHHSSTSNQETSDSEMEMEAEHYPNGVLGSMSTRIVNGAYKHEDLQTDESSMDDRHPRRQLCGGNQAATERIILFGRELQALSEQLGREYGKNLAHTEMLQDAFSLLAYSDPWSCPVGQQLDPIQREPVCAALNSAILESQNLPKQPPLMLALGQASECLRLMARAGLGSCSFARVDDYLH

These are yes or no findings as the source states them, for the method shown. For some of these results: In cells and extracts the contact can be indirect. Some results given as binding are weak or reduced against the parent protein; the word gives no strength. Tags and fused reporters may be left off the sequences shown.

The target in one experiment is BD-RanBP10 (UniProt Q6VN20). Put plainly: two-hybrid.
The target of another experiment is T1, BD-RanGAP1 (UniProt P46060).
T1 sequence: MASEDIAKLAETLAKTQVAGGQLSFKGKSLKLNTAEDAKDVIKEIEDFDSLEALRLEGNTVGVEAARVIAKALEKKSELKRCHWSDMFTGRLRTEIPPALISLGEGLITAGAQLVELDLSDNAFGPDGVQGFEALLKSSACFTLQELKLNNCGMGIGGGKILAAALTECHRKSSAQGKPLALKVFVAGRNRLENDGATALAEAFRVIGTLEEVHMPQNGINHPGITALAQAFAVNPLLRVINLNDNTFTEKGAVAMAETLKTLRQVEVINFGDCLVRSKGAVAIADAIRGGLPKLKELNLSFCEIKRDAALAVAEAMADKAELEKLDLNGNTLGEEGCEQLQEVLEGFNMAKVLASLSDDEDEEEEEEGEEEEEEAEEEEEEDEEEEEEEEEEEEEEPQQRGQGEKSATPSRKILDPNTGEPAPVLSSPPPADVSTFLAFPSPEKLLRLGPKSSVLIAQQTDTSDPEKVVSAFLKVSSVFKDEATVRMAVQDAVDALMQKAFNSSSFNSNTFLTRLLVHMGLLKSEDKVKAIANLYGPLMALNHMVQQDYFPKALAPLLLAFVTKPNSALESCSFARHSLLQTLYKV
The experiment can be described thus: two-hybrid.

The target in the next experiment is Strep-RanBP10 (UniProt Q6VN20). The experiment can be described thus: co-IP.
For experiment [1], the target named is T2, FLAG-LegG1 (L. pneumophila strain Philadelphia-1) (UniProt Q5ZU32).
T2 sequence: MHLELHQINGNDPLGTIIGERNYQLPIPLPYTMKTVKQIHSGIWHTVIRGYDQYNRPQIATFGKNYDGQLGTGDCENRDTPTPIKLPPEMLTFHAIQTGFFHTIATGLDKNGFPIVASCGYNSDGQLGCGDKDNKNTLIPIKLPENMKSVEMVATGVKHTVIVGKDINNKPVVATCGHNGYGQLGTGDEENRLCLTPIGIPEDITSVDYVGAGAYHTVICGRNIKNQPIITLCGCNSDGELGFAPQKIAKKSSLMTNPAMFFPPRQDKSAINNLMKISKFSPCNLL
Put plainly: co-IP.

B1: AD-LegG1 (protein, UniProt Q5ZU32 1-286)
chain: MHLELHQINGNDPLGTIIGERNYQLPIPLPYTMKTVKQIHSGIWHTVIRGYDQYNRPQIATFGKNYDGQLGTGDCENRDTPTPIKLPPEMLTFHAIQTGFFHTIATGLDKNGFPIVASCGYNSDGQLGCGDKDNKNTLIPIKLPENMKSVEMVATGVKHTVIVGKDINNKPVVATCGHNGYGQLGTGDEENRLCLTPIGIPEDITSVDYVGAGAYHTVICGRNIKNQPIITLCGCNSDGELGFAPQKIAKKSSLMTNPAMFFPPRQDKSAINNLMKISKFSPCNLL
As for B1, the binding entry with BD-RanBP10 is “binds”; with BD-RanGAP1, “no binding”.

B2: GFP-LegG1 (protein, UniProt Q5ZU32 1-286)
chain: MHLELHQINGNDPLGTIIGERNYQLPIPLPYTMKTVKQIHSGIWHTVIRGYDQYNRPQIATFGKNYDGQLGTGDCENRDTPTPIKLPPEMLTFHAIQTGFFHTIATGLDKNGFPIVASCGYNSDGQLGCGDKDNKNTLIPIKLPENMKSVEMVATGVKHTVIVGKDINNKPVVATCGHNGYGQLGTGDEENRLCLTPIGIPEDITSVDYVGAGAYHTVICGRNIKNQPIITLCGCNSDGELGFAPQKIAKKSSLMTNPAMFFPPRQDKSAINNLMKISKFSPCNLL
With B2, the binding result with Strep-RanBP10 is “binds”.

B3: RNA1-Strep (protein, UniProt P11745 1-407)
chain: MATLHFVPQHEEEQVYSISGKALKLTTSDDIKPYLEELAALKTCTKLDLSGNTIGTEASEALAKCIAENTQVRESLVEVNFADLYTSRLVDEVVDSLKFLLPVLLKCPHLEIVNLSDNAFGLRTIELLEDYIAHAVNIKHLILSNNGMGPFAGERIGKALFHLAQNKKAASKPFLETFICGRNRLENGSAVYLALGLKSHSEGLKVVKLYQNGIRPKGVATLIHYGLQYLKNLEILDLQDNTFTKHASLILAKALPTWKDSLFELNLNDCLLKTAGSDEVFKVFTEVKFPNLHVLKFEYNEMAQETIEVSFLPAMEKGNLPELEKLEINGNRLDEDSDALDLLQSKFDDLEVDDFEEVDSEDEEGEDEEDEDEDEKLEEIETERLEKELLEVQVDDLAERLAETEIK
With B3, the binding result in experiment [1] is “no binding”.
